Some of the results follow.
Assays:
Assay in all cases: glycan array binding signal (z-score within array); higher = stronger binding
Conditions in all cases: glycan notation: IUPAC condensed, linker removed
Gal(a1-3)Gal(b1-3)GlcNAc = biological target: Gal(a1-3)Gal(b1-3)GlcNAc
Procedure, shortened: (§1)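 Glycan array data were curated from 3228 arrays in the Consortium for Functional Glycomics database and kept only where the protein sequence was available. Glycan names were converted to IUPAC-condensed notation, and columns mapping to the same glycan were averaged. The binding signal is a within-array Z-score, averaged across arrays of the same protein sequence at different concentrations or buffers and across linkers. Negative Z-scores can be read as non-binding.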

[1] = biological target: Gal(a1-3)Gal(b1-3)GlcNAc(b1-2)Man
Procedure, shortened: as §1

[2] = biological target: Gal(a1-3)Gal(b1-3)GlcNAc(b1-2)Man(a1-3)[Gal(a1-3)Gal(b1-3)GlcNAc(b1-2)Man(a1-6)]Man(b1-4)GlcNAc(b1-4)GlcNAc
Procedure, shortened: as §1

[3] = biological target: Gal(a1-3)Gal(b1-3)GlcNAc(b1-3)GalNAc
Procedure, shortened: as §1

[4] = biological target: Gal(a1-3)Gal(b1-3)GlcNAc(b1-6)GalNAc
Procedure, shortened: as §1

[5] = biological target: Gal(a1-3)Gal(b1-3)[Fuc(a1-4)]GlcNAc(b1-2)Man(a1-3)[Gal(a1-3)Gal(b1-3)[Fuc(a1-4)]GlcNAc(b1-2)Man(a1-6)]Man(b1-4)GlcNAc(b1-4)GlcNAc
Procedure, shortened: as §1

Gal(a1-3)Gal(b1-4)Glc = biological target: Gal(a1-3)Gal(b1-4)Glc
Procedure, shortened: as §1

Gal(a1-3)Gal(b1-4)GlcNAc = biological target: Gal(a1-3)Gal(b1-4)GlcNAc
Procedure, shortened: as §1

[6] = biological target: Gal(a1-3)Gal(b1-4)GlcNAc(b1-2)Man
Procedure, shortened: as §1

[7] = biological target: Gal(a1-3)Gal(b1-4)GlcNAc(b1-2)Man(a1-3)[Gal(a1-3)Gal(b1-4)GlcNAc(b1-2)Man(a1-6)]Man(b1-4)GlcNAc(b1-4)GlcNAc
Procedure, shortened: as §1

[8] = biological target: Gal(a1-3)Gal(b1-4)GlcNAc(b1-3)GalNAc
Procedure, shortened: as §1

[9] = biological target: Gal(a1-3)Gal(b1-4)GlcNAc(b1-6)GalNAc
Procedure, shortened: as §1

[10] = biological target: Gal(a1-3)Gal(b1-4)[Fuc(a1-3)]GlcNAc
Procedure, shortened: as §1

[11] = biological target: Gal(a1-3)Gal(b1-4)[Fuc(a1-3)]GlcNAc(b1-2)Man(a1-3)[Gal(a1-3)Gal(b1-4)[Fuc(a1-3)]GlcNAc(b1-2)Man(a1-6)]Man(b1-4)GlcNAc(b1-4)GlcNAc
Procedure, shortened: as §1

Gal(a1-3)GalNAc = biological target: Gal(a1-3)GalNAc
Procedure, shortened: as §1

[12] = biological target: Gal(a1-3)[Gal(a1-4)]Gal(b1-4)GlcNAc
Procedure, shortened: as §1

[13] = biological target: Gal(a1-4)Gal(b1-3)GlcNAc(b1-2)Man(a1-3)[Gal(a1-4)Gal(b1-3)GlcNAc(b1-2)Man(a1-6)]Man(b1-4)GlcNAc(b1-4)GlcNAc
Procedure, shortened: as §1

Gal(a1-4)Gal(b1-4)Glc = biological target: Gal(a1-4)Gal(b1-4)Glc
Procedure, shortened: as §1

Gal(a1-4)Gal(b1-4)GlcNAc = biological target: Gal(a1-4)Gal(b1-4)GlcNAc
Procedure, shortened: as §1

[14] = biological target: Gal(a1-4)Gal(b1-4)GlcNAc(b1-2)Man(a1-3)[Gal(a1-4)Gal(b1-4)GlcNAc(b1-2)Man(a1-6)]Man(b1-4)GlcNAc(b1-4)GlcNAc
Procedure, shortened: as §1

[15] = biological target: Gal(a1-4)Gal(b1-4)GlcNAc(b1-3)Gal(b1-4)Glc
Procedure, shortened: as §1

Gal(a1-4)GlcNAc = biological target: Gal(a1-4)GlcNAc
Procedure, shortened: as §1

Gal(a1-6)Glc = biological target: Gal(a1-6)Glc
Procedure, shortened: as §1

Gal(b1-2)Gal = biological target: Gal(b1-2)Gal
Procedure, shortened: as §1

Gal(b1-3)Gal = biological target: Gal(b1-3)Gal
Procedure, shortened: as §1

Gal(b1-3)Gal(b1-4)GlcNAc = biological target: Gal(b1-3)Gal(b1-4)GlcNAc
Procedure, shortened: as §1

Gal(b1-3)GalNAc = biological target: Gal(b1-3)GalNAc
Procedure, shortened: as §1

[16] = biological target: Gal(b1-3)GalNAc(a1-3)[Fuc(a1-2)]Gal(b1-4)Glc
Procedure, shortened: as §1

[17] = biological target: Gal(b1-3)GalNAc(a1-3)[Fuc(a1-2)]Gal(b1-4)GlcNAc
Procedure, shortened: as §1

Gal(b1-3)GalNAc(b1-3)Gal = biological target: Gal(b1-3)GalNAc(b1-3)Gal
Procedure, shortened: as §1

[18] = biological target: Gal(b1-3)GalNAc(b1-3)Gal(a1-4)Gal(b1-4)Glc
Procedure, shortened: as §1

[19] = biological target: Gal(b1-3)GalNAc(b1-4)Gal(b1-4)Glc
Procedure, shortened: as §1

[20] = biological target: Gal(b1-3)GalNAc(b1-4)[Neu5Ac(a2-3)]Gal(b1-4)Glc
Procedure, shortened: as §1

Gal(b1-3)GlcNAc = biological target: Gal(b1-3)GlcNAc
Procedure, shortened: as §1

[21] = biological target: Gal(b1-3)GlcNAc(a1-3)Gal(b1-4)GlcNAc
Procedure, shortened: as §1

[22] = biological target: Gal(b1-3)GlcNAc(a1-6)Gal(b1-4)GlcNAc
Procedure, shortened: as §1

Gal(b1-3)GlcNAc(b1-2)Man = biological target: Gal(b1-3)GlcNAc(b1-2)Man
Procedure, shortened: as §1

[23] = biological target: Gal(b1-3)GlcNAc(b1-2)Man(a1-3)[Gal(b1-3)GlcNAc(b1-2)Man(a1-6)]Man(b1-4)GlcNAc(b1-4)GlcNAc
Procedure, shortened: as §1

B1: Protein L(B1-B4) (Finegoldia magna), Q51912 (protein)
chain: KEETPETPETDSEEEVTIKANLIFANGSTQTAEFKGTFEKATSEAYAYADTLKKDNGEYTVDVADKGYTLNIKFAGKEKTPEEPKEEVTIKANLIYADGKTQTAEFKGTFEEATAEAYRYADALKKDNGEYTVDVADKGYTLNIKFAGKEKTPEEPKEEVTIKANLIYADGKTQTAEFKGTFEEATAEAYRYADLLAKENGKYTVDVADKGYTLNIKFAGKEKTPEEPKEEVTIKANLIYADGKTQTAEFKGTFAEATAEAYRYADLLAKENGKYTADLEDGGYTINIRFAG
glycan array binding signal (z-score) (Gal(a1-3)Gal(b1-3)GlcNAc): -0.054 | glycan array binding signal (z-score) [1]: -0.707 | glycan array binding signal (z-score) [2]: 1.28 | glycan array binding signal (z-score) [3]: 1.35 | glycan array binding signal (z-score) [4]: 0.514 | glycan array binding signal (z-score) [5]: 1.97 | glycan array binding signal (z-score) (Gal(a1-3)Gal(b1-4)Glc): 0.278 | glycan array binding signal (z-score) (Gal(a1-3)Gal(b1-4)GlcNAc): -1.07 | glycan array binding signal (z-score) [6]: -0.04 | glycan array binding signal (z-score) [7]: 0.412 | glycan array binding signal (z-score) [8]: -0.678 | glycan array binding signal (z-score) [9]: -0.013 | glycan array binding signal (z-score) [10]: -0.181 | glycan array binding signal (z-score) [11]: 0.79 | glycan array binding signal (z-score) (Gal(a1-3)GalNAc): 0.36 | glycan array binding signal (z-score) [12]: 1.1 | glycan array binding signal (z-score) [13]: -0.513 | glycan array binding signal (z-score) (Gal(a1-4)Gal(b1-4)Glc): 0.674 | glycan array binding signal (z-score) (Gal(a1-4)Gal(b1-4)GlcNAc): -0.873 | glycan array binding signal (z-score) [14]: 0.203 | glycan array binding signal (z-score) [15]: -0.798 | glycan array binding signal (z-score) (Gal(a1-4)GlcNAc): -0.414 | glycan array binding signal (z-score) (Gal(a1-6)Glc): -0.568 | glycan array binding signal (z-score) (Gal(b1-2)Gal): -0.466 | glycan array binding signal (z-score) (Gal(b1-3)Gal): -1.04 | glycan array binding signal (z-score) (Gal(b1-3)Gal(b1-4)GlcNAc): -0.353 | glycan array binding signal (z-score) (Gal(b1-3)GalNAc): -0.452 | glycan array binding signal (z-score) [16]: 0.326 | glycan array binding signal (z-score) [17]: -0.393 | glycan array binding signal (z-score) (Gal(b1-3)GalNAc(b1-3)Gal): -0.68 | glycan array binding signal (z-score) [18]: 0.334 | glycan array binding signal (z-score) [19]: -0.763 | glycan array binding signal (z-score) [20]: -0.055 | glycan array binding signal (z-score) (Gal(b1-3)GlcNAc): -0.372 | glycan array binding signal (z-score) [21]: -0.126 | glycan array binding signal (z-score) [22]: -0.886 | glycan array binding signal (z-score) (Gal(b1-3)GlcNAc(b1-2)Man): 0.578 | glycan array binding signal (z-score) [23]: 1.35

— the supplement of paper PMC8728848
